Results on four compounds are retold here after PubChem BioAssay AID624132 (Broad Institute, 2012).

Out of some 1,600 compounds screened, about 1,500 (94%) were called active. So high a share suggests a set chosen from earlier hits. The entries are a selection whose mix differs from that of the whole data set. Potency and affinity values are given separately. Records with an inconclusive call do not appear.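 How the source made its calls: active means signal drop with fitted half-maximal concentration at most twice the top valid dose for that sample; inconclusive means flat fit between 30 and 70% inhibition, or poor curve fit; inactive means the rest.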

The nature of the assay: Shn3 3'UTR reporter inhibitors, dose response, cell-based, Clone20 osteoblasts, firefly luciferase, cherry-picked (AID 624132). Particulars: Clone20 osteoblast Shn3 3'UTR firefly luciferase, 24 h; at 35 µM (top of the series).
Take `CC(C)N1CCN(Cc2c[nH]c3ccccc23)CC1CCO` (centres undefined): the activity change, negative = inhibition is inactive: -2.35%. Turning to `CCN1C[C@]2(COC)CC[C@H](OC)[C@@]34C1[C@]1(OCO[C@@]15C[C@H](OC)[C@H]1C[C@@H]3[C@@H]5[C@H]1OC)[C@@H](O)[C@H]24`, the activity change, negative = inhibition was inactive: 11.2%. For `CCOC(=O)C1C(=O)NC2(C)CC1c1cc(OC)ccc1O2` (centres undefined), the activity change, negative = inhibition was inactive: 6.5%. For `COc1cccc2c1O[C@H]1C(=O)CC[C@H]3CN(C)CCC231` (some centres undefined), the activity change, negative = inhibition was inactive: -5.63%.
